This passage reports binding results from article PMC9780206.

The target in test [1] is mature AtUC5 (amino acids 25–152) (A. thaliana) (UniProt Q9C7T2). The test can be described thus: two-hybrid; pairwise assay (Hybrigenics Services): bait in L40deltaGal4 and prey in YHGX13, mated to diploids; streaks of three independent clones on DO-2 (-Trp -Leu) and DO-3 (-Trp -Leu -His) media.
For test [2] the target is unchanged. The test can be described thus: two-hybrid; library screen (Hybrigenics Services): mature AtUC5 (amino acids 25-152) as bait against a random-primed A. thaliana seedlings cDNA library; colonies selected on medium lacking tryptophan, leucine and histidine with 2 mM 3-aminotriazole.

Results are given in words; binding and its absence hold for the method and conditions named. Binding can be weak; no strength is given.

“late embryogenesis abundant (LEA) protein-like protein (At5g54370), amino acids 195–337 (from UniProt Q9FG54) (domain or fragment)”: the binding result in test [1] and in test [2] was “binds” throughout.

B1: copper amine oxidase (AtCuAOγ2, At3g43670), amino acids 212–491 (domain or fragment, UniProt Q9M2B9 212-491)
chain: VDMDKLEIIKIVDNGPVPVPKSTGTEYRYGFLNETVYMDRVNPMSMEQPDGPSFQVEDGYLVKWANWKFHIKPDQRAGMIISQATVRDSKTGEARSVMYKGFASELFVPNMDPGEGWYSKAYMDAGEFGLGPSSMPLVPLNDCPRNAYYIDGFFASPEGIPILQPNMICLFERYAGDTSWRHSEILLPGVDIRESRAKVTLVARMACSVGNYDYIFDWEFQMDGVIRVTVAASGMLMVKGTAYENVEDLGEKEDDSGPLISENVIGVVHDHFISFHLDMD
As for B1, the binding result in test [1] and in test [2] was “binds” throughout.
